According to PubChem BioAssay AID504834 (National Center for Advancing Translational Sciences (NCATS), 2011):
Hit rate of the full screen: of about 320,000 compounds, about 22,000 (6.9%) were called active. The inconclusive results got no clear call from the source; some entries with a clear call stand among them for comparison. The call rests on the fitted dose curve; in most records, active means well fitted inhibition curve with a large enough effect; inconclusive means small, poorly fitted or top-dose-only effect, or another doubt; inactive means no such curve, though single readings can be large or run the other way. Where the call is inconclusive, the potency comes from a doubtful curve fit.

Experiment: Primary qHTS for delayed death inhibitors of the malarial parasite plastid, 96 hour incubation
Conditions: P. falciparum luciferase reporter growth; series mostly up to 28.7 µM
How it was run: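 Plates of compound plus infected erythrocytes (2% hematocrit, 0.05% parasitemia final) incubate 96 hours, 37 C, 5% CO2. Detection reagent added; reduced luminescence from the parasites' luciferase reporter flags inhibition.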
Potency means the concentration at half of the fitted maximal effect.

Compound | Potency
O=C(NC12CC3CC(CC(C3)C1)C2)N1CCC(n2nnc3ccccc32)CC1 | active: 9.28 µM
N#CCSc1nnc(Cc2ccc3c(c2)OCO3)o1 | inactive
O=[N+]([O-])c1cc(S(=O)(=O)N2CCCCC2)ccc1NCCCN1CCOCC1 | active: 1.47 µM
CC(=O)c1ccc(OCCCC(=O)NCC(c2ccco2)N(C)C)cc1 (stereo not drawn) | inconclusive: 9.28 µM [inhibitor, partial curve]
CCOC(=O)c1c(Nc2nc(C)c(C(=O)NC)s2)sc(C)c1C | inconclusive: 18.5 µM [inhibitor, single point]
Cc1cccc(-c2nc(Nc3ccc(N4CCOCC4)cc3)c3ccccc3n2)c1 | inconclusive: 18.5 µM [inhibitor, single point]
CC(=O)C1=C(C)NC(=O)NC1/C=C/c1ccccc1 (stereo not drawn) | inconclusive: 10.4 µM [inhibitor, single point]
O=C(O)CCC(NS(=O)(=O)c1ccc(-c2ccccc2)cc1)C(=O)O (stereo not drawn) | inconclusive: 10.4 µM [inhibitor, single point]
Cc1ccc(NC(=O)CSC2=C(C#N)C(c3ccc4c(c3)OCO4)CC(=O)N2)cc1C (stereo not drawn) | inconclusive: 18.5 µM [inhibitor, single point]
CCc1nc(Nc2ccc(O)cc2)c2oc3ccccc3c2n1 | inconclusive: 10.4 µM [inhibitor, partial curve, poor fit]
CC(C)=CCN1CCN(Cc2cc(CC(C)C)n[nH]2)CC1CCO (stereo not drawn) | inactive
O=C(CCNS(=O)(=O)c1ccc(Cl)cc1)N1CCOCC1 | inconclusive: 10.4 µM [inhibitor, partial curve, poor fit]
Cc1coc2cc3oc(=O)c(CCC(=O)NCc4ccccn4)c(C)c3cc12 | inactive
Cc1cc([N+](=O)[O-])ccc1NC(=S)NC(=O)C(c1ccccc1)c1ccccc1 | inconclusive: 18.5 µM [inhibitor, single point]
Cc1cc(C)n(-c2ncc(-c3ccccc3)nn2)n1 | inconclusive: 11.7 µM [inhibitor, partial curve, poor fit]
O=C(COC(=O)CCN1C(=O)C2CC=CCC2C1=O)NCCc1ccc(F)cc1 (stereo not drawn) | inconclusive: 11.7 µM [inhibitor, partial curve, poor fit]
Cc1ccc(-c2n[nH]c(=O)c3ccccc23)cc1S(=O)(=O)NCCN1CCOCC1 | inconclusive: 2.33 µM [inhibitor, full curve]
COc1ccc(S(=O)(=O)NCCC(=O)NCc2ccccc2)cc1 | inconclusive: 4.15 µM [inhibitor, single point]

Ordered by molar mass (largest number first): five of the compounds above.
Compound | Potency
Cc1cccc(-c2nc(Nc3ccc(N4CCOCC4)cc3)c3ccccc3n2)c1 | inconclusive: 18.5 µM [inhibitor, single point]
O=C(NC12CC3CC(CC(C3)C1)C2)N1CCC(n2nnc3ccccc32)CC1 | active: 9.28 µM
COc1ccc(S(=O)(=O)NCCC(=O)NCc2ccccc2)cc1 | inconclusive: 4.15 µM [inhibitor, single point]
CCc1nc(Nc2ccc(O)cc2)c2oc3ccccc3c2n1 | inconclusive: 10.4 µM [inhibitor, partial curve, poor fit]
N#CCSc1nnc(Cc2ccc3c(c2)OCO3)o1 | inactive
